From patent US7968103B2, “Compositions comprising fetal hemoglobin and bacterial endotoxin and optionally additional fetal liver components” (priority 2003, dated 2011)
Results are given in words; binding and its absence hold for the method and conditions named. Some results given as binding are weak or reduced against the parent protein; the word gives no strength.

Protein sequences, listed by entry. Tags and fused reporters are not part of them. Lines headed by an entry give the natural chain unless they say otherwise; changes in a name come on top. Chains listed by the source or under a name are the forms on record and can include a tag or linker.
UniProt P0CH25: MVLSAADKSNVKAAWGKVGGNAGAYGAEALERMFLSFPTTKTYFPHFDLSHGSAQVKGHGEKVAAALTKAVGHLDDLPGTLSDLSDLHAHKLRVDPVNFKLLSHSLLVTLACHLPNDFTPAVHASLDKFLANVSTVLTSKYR
human haptoglobin (phenotype 1-1) (P00738, form named): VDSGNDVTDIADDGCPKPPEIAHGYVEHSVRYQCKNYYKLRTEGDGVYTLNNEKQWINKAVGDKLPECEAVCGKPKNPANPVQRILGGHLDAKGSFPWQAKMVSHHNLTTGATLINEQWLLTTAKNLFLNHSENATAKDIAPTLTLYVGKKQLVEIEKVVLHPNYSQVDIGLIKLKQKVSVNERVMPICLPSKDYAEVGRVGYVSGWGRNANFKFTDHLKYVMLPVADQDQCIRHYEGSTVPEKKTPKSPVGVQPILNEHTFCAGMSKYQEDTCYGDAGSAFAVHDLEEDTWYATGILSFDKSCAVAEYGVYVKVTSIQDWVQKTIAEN

Legend:
[1] = target: fetal ovine hemoglobin (HbF) present in CLP1b (sheep) (UniProt P0CH25); test: preincubation of CLP1b with haptoglobin before the LPS plate adsorption assay; SDS-PAGE
[2] = target: fetal ovine hemoglobin (HbF) present in CLP1b (sheep) (UniProt P0CH25); test: hemoglobin-directed depletion with haptoglobin before the LPS plate adsorption assay; SDS-PAGE with silver staining

- binding [1]: binds
- binding [2]: binds
Substance: human haptoglobin (phenotype 1-1) (from UniProt P00738 19-347)
